Data from paper PMC8200828, “Phylogenetic and Structural Analysis of NIN-Like Proteins With a Type I/II PB1 Domain That Regulates Oligomerization for Nitrate Response” (Frontiers in Plant Science, 2021).
Residue numbers refer to the chain shown, from its start. In names and notes the source's numbering stands. Results are given in words; binding and its absence hold for the method and conditions named. Each block holds one binder with its values, some of them ahead of it.

Assays:
[1] = target: NLP7 PB1m1 (K867A) (Arabidopsis thaliana) (UniProt Q84TH9); assay: SEC; Superdex S-75 in buffer A (20 mM Tris-HCl pH 8.8, 0.5 M NaCl, 10% glycerol), calibrated with gel filtration standard markers; self-association; both purified
[2] = target: NLP7 PB1m1 (K867A) (Arabidopsis thaliana) (UniProt Q84TH9); assay: dynamic light scattering; wild type and mutants after SEC, mutants in buffer A, 25 °C; concentration not given; self-association; both purified
[3] = target: NLP7 PB1m3 (K867A/D909A/D911A) (Arabidopsis thaliana) (UniProt Q84TH9); assay: SEC; Superdex S-75 in buffer A (20 mM Tris-HCl pH 8.8, 0.5 M NaCl, 10% glycerol), calibrated with gel filtration standard markers; self-association; both purified
[4] = target: NLP7 PB1m3 (K867A/D909A/D911A) (Arabidopsis thaliana) (UniProt Q84TH9); assay: dynamic light scattering; wild type and mutants after SEC, mutants in buffer A, 25 °C; concentration not given; self-association; both purified
[5] = target: NLP7 PB1m2 (D909A/D911A) (Arabidopsis thaliana) (UniProt Q84TH9); assay: SEC; Superdex S-75 in buffer A (20 mM Tris-HCl pH 8.8, 0.5 M NaCl, 10% glycerol), calibrated with gel filtration standard markers; self-association; both purified
[6] = target: NLP7 PB1m2 (D909A/D911A) (Arabidopsis thaliana) (UniProt Q84TH9); assay: dynamic light scattering; wild type and mutants after SEC, mutants in buffer A, 25 °C; concentration not given; self-association; both purified

binding [1]: no binding | binding [2]: no binding
B1: NLP7 PB1m1 (K867A) (domain or fragment, UniProt Q84TH9 863-945)
chain: TVTIAASYKDDIIRFRISSGSGIMELKDEVAKRLKVDAGTFDIKYLDDDNEWVLIACDADLQECLEIPRSSRTKIVRLLVHDV

binding [3]: no binding | binding [4]: no binding
B2: NLP7 PB1m3 (K867A/D909A/D911A) (domain or fragment, UniProt Q84TH9 863-945)
chain: B1 chain with D47A, D49A

binding [5]: no binding | binding [6]: no binding
B3: NLP7 PB1m2 (D909A/D911A) (domain or fragment, UniProt Q84TH9 863-945)
chain: B1 chain with A5K, D47A, D49A
